Measured values taken from PubChem BioAssay AID540303 (National Center for Advancing Translational Sciences (NCATS), 2011).
Several values for one entry are separate records, joined by “and”; a condition that tells them apart may be missing. Equal entries are not always repeated. About 1,000 (0.3%) of roughly 330,000 compounds were called active. The shares of active, inactive and inconclusive entries below differ from those in the screen. Calls come from the whole dose curve; as a rule, active = well fitted inhibition curve with a large enough effect; inconclusive = small, poorly fitted or top-dose-only effect; inactive = no such curve, though single readings can be large or run the other way; tested in mouse RAW 264.7 cells. Potencies beside an inconclusive call are fits to weak or partial responses and may not hold up.
% is set by controls: 0 for no effect and ±100 for the full control effect; potency is the fitted concentration of half-maximal effect.

Assay: qHTS for Inhibitors of Cell Surface uPA Generation; note: nearly all actives have a fitted effect of over 55% in size
Details: cell surface uPA generation assay; series mostly up to 38.3 µM; activity change, negative = inhibition: at the top concentration
Summary of the method: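 RAW 264.7 cells, 4000/well, given compound (1:5 dilutions, up to 38.3 uM final) and incubated 24 h at 37 C. Blocked uPA-dependent LF entry keeps ATP high; ATPlite luminescence read, 5 s exposure.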
For `COc1ccc(-c2c([C@H]3[C@H]4C=CC[C@@H](C)[C@@H]4C(=O)N3Cc3ccccc3)ccc3ccccc23)cc1OC`, the Potency was inconclusive: 11.2 µM [inhibitor, single point]. For `Cc1cc(N(C)C)ccc1N=Nc1ccc(N)cc1`, the Potency was inconclusive: 4.47 µM [inhibitor, partial curve, poor fit]. With `CCCN1CCc2cccc3c2[C@H]1Cc1ccc(O)c(O)c1-3` the Potency was inconclusive: 12.6 µM [inhibitor, single point]. For `CC1=C(C(=O)OCc2ccc3c(c2)OCO3)C(c2ccccc2)NC(=O)N1` (configuration not stated), the Potency was inconclusive: 7.08 µM [inhibitor, single point]. In the case of `Cc1ccc2c(c1)C1CN(C)CCC1N2C(=O)c1cn(-c2ccccc2)nc1-c1ccccc1` (configuration not stated), the Potency is reported as inconclusive: 8.91 µM [inhibitor, partial curve, poor fit]. For `O=C(Nc1ccc(Cl)cc1)Nc1ccc(Cl)c(Cl)c1`, the Potency was inconclusive: 28.2 µM [inhibitor, single point]. For `CN(C)c1ccc(NC(=O)CN2C(=O)CN=C(c3ccccc3)c3cc(Cl)ccc32)cc1`, the Potency was inconclusive: 10 µM [inhibitor, single point]. With `COc1ccc(CNS(=O)(=O)c2cc3c(cc2C)N(C)CCO3)cc1` the Potency was inconclusive: 10 µM [inhibitor, single point]. With `Clc1ccc(CCC(Cn2ccnc2)Sc2c(Cl)cccc2Cl)cc1` (configuration not stated) the Potency was inconclusive: 12.6 µM [inhibitor, single point]. For `Nc1c2c(nc3sc4c(c13)CCCCC4)CCCC2`, the “activity change, negative = inhibition” value was inactive: -8.74%. For `COC(=O)C1=C(c2ccc(-c3ccccc3)c(F)c2)C[C@@H]2CC[C@H]1N2C(=O)NC1CC1`, the “activity change, negative = inhibition” value was inactive: -25.7%. In the case of `Cc1c2ccncc2c(C)c2c1[nH]c1ccccc12`, the Potency is reported as active: 0.891 µM. In the case of `COC(=O)C1=C(c2ccc(OCc3ccccc3)cc2)C[C@@H]2CC[C@H]1N2C(=O)NC1CCN(Cc2ccccc2)CC1`, the Potency is reported as inconclusive: 12.6 µM [inhibitor, single point]. For `O=C1/C(=C\c2ccncc2)N2CCC1CC2`, the Potency was inconclusive: 3.16 µM [inhibitor, partial curve, poor fit]. With `COC(=O)C1=C(c2ccccc2OCc2ccccc2)C[C@@H]2CC[C@H]1N2C(=O)NCCc1ccc(F)cc1` the Potency was inconclusive: 12.6 µM [inhibitor, single point]. In the case of `COc1ccc(-c2cc(=NCC(=O)O)c3ccccc3o2)cc1`, the Potency is reported as inconclusive: 11.2 µM [inhibitor, partial curve, poor fit]. With `CC(=O)N(C)c1ccc(OCC(O)CN(c2ccccc2C)S(=O)(=O)c2ccc(C)cc2)cc1` (configuration not stated) the Potency was inconclusive: 10 µM [inhibitor, single point]. In the case of `CC(C)(C)c1cc([N+](=O)[O-])cc(C(C)(C)C)c1O`, the Potency is reported as active: 7.94 µM. With `CC1(c2ccccc2)NC(=O)N(CC(=O)Nc2nc(-c3ccccn3)cs2)C1=O` (configuration not stated) the Potency was inconclusive: 10 µM [inhibitor, single point]. With `O=C1C=C(c2ccc3ncccc3c2)C[C@@H](c2ccc(Cl)cc2)C1` the Potency was inconclusive: 11.2 µM [inhibitor, single point]. In the case of `CN(Cc1ccco1)C(=O)Cn1c(=O)oc2cc(S(=O)(=O)NCc3ccccc3)ccc21`, the Potency is reported as inconclusive: 2.82 µM [inhibitor, single point]. For `O=C1N[C@@H](Cc2c[nH]c3ccccc23)COC(=O)[C@@H](Cc2ccc(F)cc2)CC/C=C/C[C@@H]1CC(=O)N(CCO)Cc1ccccc1`, the Potency was inconclusive: 28.2 µM [inhibitor, single point]. With `CN1CC[C@@]2(C)c3cc(O)ccc3N(C)[C@@H]12` the Potency was inconclusive: 11.2 µM [inhibitor, partial curve, poor fit] and inconclusive: 7.94 µM [inhibitor, partial curve, poor fit]. In the case of `S=C=Nc1ccccn1`, the “activity change, negative = inhibition” value is reported as inactive: -19.8%. With `Oc1cccc2nc3ccccc3nc12` the Potency was inconclusive: 11.2 µM [inhibitor, partial curve, poor fit]. With `COC(=O)C1=C(c2cc3ccccc3s2)C[C@@H]2CC[C@H]1N2C(=O)NC1CCCCC1` the Potency was inconclusive: 12.6 µM [inhibitor, single point]. With `CCCNC(=O)N1[C@H]2CC[C@@H]1C(C(=O)OC)=C(c1ccc(-c3ccccc3)c(F)c1)C2` the Potency was inconclusive: 28.2 µM [inhibitor, single point]. In the case of `O=[N+]([O-])c1ccc(N2CCOCC2)c2cccnc12`, the Potency is reported as inconclusive: 5.01 µM [inhibitor, partial curve, poor fit]. In the case of `Cc1noc(C)c1COc1ccccc1C(=O)N1CCN(S(=O)(=O)c2ccccc2Br)CC1`, the Potency is reported as inconclusive: 11.2 µM [inhibitor, single point]. For `COC(=O)C1=C(c2ccc(F)cc2OCc2ccccc2)C[C@@H]2CC[C@H]1N2C(=O)NCc1ccccc1`, the Potency was inconclusive: 7.08 µM [inhibitor, partial curve, poor fit]. In the case of `O=C1NC(=S)NC(=O)C1=Cc1ccc(OCC(=O)N2CCCC2)cc1`, the “activity change, negative = inhibition” value is reported as inactive: 7.1%. In the case of `CCCNC(=O)c1ccc2c(=O)c(O)c(-c3cccc(Br)c3)[nH]c2c1`, the Potency is reported as inconclusive: 28.2 µM [inhibitor, single point]. For `O=C1NC(=O)N(Cc2ccccc2)C(=O)/C1=C/C=C/c1ccco1`, the Potency was inconclusive: 11.2 µM [inhibitor, single point]. For `COC1=CC(=O)[C@]2(C=C1OC)OC[C@@H]1Oc3c(ccc4c3C=CC(C)(C)O4)C(=O)[C@@H]12`, the Potency was inconclusive: 8.91 µM [inhibitor, partial curve, poor fit]. With `O=C1NC(=S)N/C1=C/c1cccc2ccccc12` the Potency was inconclusive: 7.08 µM [inhibitor, partial curve, poor fit]. In the case of `O=C(N[C@H]1CCC(=O)N([C@H](CSc2ccccc2)Cc2ccccc2)CC1)OCc1ccccc1`, the Potency is reported as inconclusive: 10 µM [inhibitor, single point]. For `COC(=O)CCCC(NC(=S)N1CC2C[C@@H](C1)Cn1c2cccc1=O)C(=O)OC` (some centres not stated), the “activity change, negative = inhibition” value was inactive: 0.934%. With `O=C(C1=C[C@H](c2csc3ccccc23)C[C@H](OCCCCO)O1)N1CCN(Cc2ccc3c(c2)OCO3)CC1` the Potency was inconclusive: 12.6 µM [inhibitor, single point]. For `FC(F)Sc1ccc(NC(=S)NC(c2ccccc2)c2ccccc2)cc1`, the Potency was inconclusive: 22.4 µM [inhibitor, single point]. With `CC(=O)N(C(C)=O)c1ncc2c([nH]c3ccccc32)c1C#N` the Potency was inconclusive: 11.2 µM [inhibitor, partial curve, poor fit]. For `NC(=O)[C@@H]1CC2(CC(c3cccc(NC(=O)CC(c4ccccc4)c4ccccc4)c3)=NO2)CN1C(=O)c1ccc(Cl)cc1` (some centres not stated), the Potency was inconclusive: 12.6 µM [inhibitor, partial curve, poor fit]. With `O=c1cc(CSc2ccc(Cl)cc2)nc(-c2ccccn2)[nH]1` the Potency was inconclusive: 2.82 µM [inhibitor, partial curve, poor fit]. With `COC(=O)C1=C(c2ccc(OC(F)(F)F)cc2)C[C@@H]2CC[C@H]1N2C(=O)NCc1cc(C)oc1C(F)(F)F` the Potency was inconclusive: 7.08 µM [inhibitor, single point]. For `CC(C)c1ccc(NC(=O)c2ccc3c(c2)C(=O)N(Cc2cccnc2)C3=O)cc1`, the Potency was inconclusive: 17.8 µM [inhibitor, single point]. With `CC(Cc1ccccc1)NCCC(c1ccccc1)c1ccccc1` (configuration not stated) the Potency was inconclusive: 12.6 µM [inhibitor, single point]. With `COc1ccc(-c2coc3cc(O)ccc3c2=O)cc1` the Potency was inconclusive: 5.01 µM [inhibitor, partial curve, poor fit]. For `C[C@]12CC[C@H](O)C[C@H]1CC[C@@H]1[C@@H]2C[C@@H](O)[C@]2(C)[C@@H](C3=CC(=O)OC3)CC[C@]12O`, the “activity change, negative = inhibition” value was inactive: 5.07%. In the case of `O=C(NCC1CCCO1)c1cc2c([nH]c3ccccc32)c(-c2cccc(Cl)c2)n1` (configuration not stated), the Potency is reported as inconclusive: 28.2 µM [inhibitor, single point]. For `CCC(C)NC(=O)CCC(=O)OC1O[C@H]2OC3(C)CC[C@H]4[C@H](C)CCC(C1C)C24OO3` (some centres not stated), the Potency was inconclusive: 0.0224 µM [inhibitor, full curve, poor fit]. With `CCOC(=O)[C@]12Cc3cc(OC)ccc3[C@H]1N(Cc1ccccc1)C(=O)c1ccccc12` the “activity change, negative = inhibition” value was inactive: -17.3%. In the case of `O=C(Nc1ccc(N2CCCC2)cc1)c1ccccc1[N+](=O)[O-]`, the Potency is reported as inconclusive: 28.2 µM [inhibitor, single point]. With `C=C1[C@@H](C)[C@H]2[C@H](Cc3ccccc3)NC(=O)[C@]23OC(=O)/C=C/[C@H](O)CCC[C@@H](C)C/C=C/[C@H]3[C@@H]1O` the Potency was inconclusive: 1 µM [inhibitor, full curve, poor fit]. In the case of `CN(C)S(=O)(=O)N1CCC(Oc2ccc(C(=O)N3C[C@H]4CC[C@H]3C4)cc2)CC1`, the Potency is reported as inconclusive: 12.6 µM [inhibitor, single point]. In the case of `OCCN1CCN(CCCN2c3ccccc3Sc3ccc(C(F)(F)F)cc32)CC1`, the Potency is reported as inconclusive: 12.6 µM [inhibitor, single point]. For `COc1ccc(OC(=O)Nc2ccccc2)cc1`, the Potency was inconclusive: 7.08 µM [inhibitor, partial curve, poor fit]. In the case of `C=CCn1c(O)c(/C=C2/C=CC=N2)c(=O)[nH]c1=O`, the Potency is reported as inconclusive: 5.01 µM [inhibitor, single point]. With `O=C(OCCc1ccccc1)c1cc(O)c(O)c(O)c1` the Potency was inconclusive: 3.16 µM [inhibitor, partial curve, poor fit].
